According to article PMC11310202:
Changes are numbered by the printed parent chain. Results are given in words; binding and its absence hold for the method and conditions named. In cells and extracts the contact can be indirect. Some results given as binding are weak or reduced against the parent protein; the word gives no strength. One block for each molecule: values may come before it.

What was measured:
[1] = molecular target: T1, VIMm-SVIP-mCherry (SVIP with three point mutations in the VCP-interacting motif) (human) (UniProt Q8NHG7); assay: co-IP; immunoprecipitation of SVIP-mCherry with anti-mCherry from lysates of HEK293T cells co-expressing VCP-GFP and SVIP-mCherry; VCP-GFP detected by blot
T1 sequence: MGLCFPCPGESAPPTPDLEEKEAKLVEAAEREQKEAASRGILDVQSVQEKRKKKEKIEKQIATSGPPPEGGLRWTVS

[2] = molecular target: T2, WT-SVIP-mCherry (small VCP-interacting protein, wild type, C-terminal mCherry) (human) (UniProt Q8NHG7); assay: as above
T2 sequence (chain, myristoylated at Glycine 2; palmitoylated at Cysteines 4 and 7): T1 sequence with E22R, V26A, E32R

[3] = molecular target: WT-VCP-GFP (valosin-containing protein, wild type, C-terminal GFP) (UniProt P55072); assay: co-IP; immunoprecipitation of VCP-GFP with anti-GFP from lysates of HEK293T cells co-expressing VCP-GFP and SVIP-mCherry; SVIP-mCherry detected by blot

binding [1]: no binding
binding [2]: binds
Molecule: WT-VCP-GFP (valosin-containing protein, wild type, C-terminal GFP) (from UniProt P55072 1-806)

binding [3]: binds
B1: WT-SVIP-mCherry (small VCP-interacting protein, wild type, C-terminal mCherry) (protein, UniProt Q8NHG7 1-77)
chain: T1 sequence with E22R, V26A, E32R
modifications: myristoylated at Glycine 2; palmitoylated at Cysteines 4 and 7

binding [3]: no binding
B2: VIMm-SVIP-mCherry (SVIP with three point mutations in the VCP-interacting motif) (protein, UniProt Q8NHG7 1-77)
chain: T1 sequence
